# Where a name gives a salt, the structure may show the parent alone. ± gives the standard deviation of the averaged measurements. The list shows a part of the results. Repeats in this data set agree poorly, so a single value says little.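 The A. baumannii strains are clinical isolates chosen because they resist the partner antibiotic, and the screen looks for drugs that restore that antibiotic's effect. The reading at the start of incubation is subtracted to remove background from coloured compounds.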
# Columns and labels:
# [1] = tested on: Acinetobacter baumannii NCTC-13301; assay: percent growth inhibition of drug alone vs DMSO control; higher = more growth inhibition; settings: antibiotic (0.125x MIC): none (0.1% DMSO)
# [2] = tested on: Acinetobacter baumannii NCTC-13301; assay: percent growth inhibition of drug + antibiotic vs DMSO control; higher = more growth inhibition
# [3] = tested on: Acinetobacter baumannii WP-487; assay: percent growth inhibition of drug alone vs DMSO control; higher = more growth inhibition; settings: antibiotic (0.125x MIC): none (0.1% DMSO)
# [4] = tested on: Acinetobacter baumannii WP-487; assay: percent growth inhibition of drug + antibiotic vs DMSO control; higher = more growth inhibition; settings: antibiotic (0.125x MIC): colistin
# [5] = antibiotic (0.125x MIC): meropenem, 7 µM
# [6] = antibiotic (0.125x MIC): meropenem, 20 µM
# [7] = antibiotic (0.125x MIC): gentamicin, 7 µM
# [8] = antibiotic (0.125x MIC): gentamicin, 20 µM
# [9] = antibiotic (0.125x MIC): ciprofloxacin, 7 µM
# [10] = antibiotic (0.125x MIC): ciprofloxacin, 20 µM
structure (smiles),measurement,setting,value
CC[C@H]1OC(=O)[C@H](C)[C@@H](O[C@H]2C[C@@](C)(OC)[C@@H](O)[C@H](C)O2)[C@H](C)[C@@H](O[C@@H]2O[C@H](C)C[C@H](N(C)C)[C@H]2O)[C@](C)(OC)C[C@@H](C)C(=O)[C@H](C)[C@@H](O)[C@]1(C)O [Clarithromycin],percent growth inhibition of drug alone,[1]; 7 µM,24 ± 2.5%
same,percent growth inhibition of drug alone,[1]; 20 µM,45.8 ± 3.4%
same,percent growth inhibition,[2]; [5],18.5 ± 3.6%
same,percent growth inhibition,[2]; [6],82 ± 23%
CCC1=C(C)CN(C(=O)NCCc2ccc(S(=O)(=O)NC(=O)N[C@H]3CC[C@H](C)CC3)cc2)C1=O [Glimepiride],percent growth inhibition of drug alone,[1]; 7 µM,-2.07 ± 9.2%
same,percent growth inhibition of drug alone,[1]; 20 µM,-0.319 ± 1.4%
same,percent growth inhibition,[2]; [5],7.68 ± 27%
same,percent growth inhibition,[2]; [6],-6.61 ± 12%
COC(=O)C1=C(C)NC(C)=C(C(=O)OCC(C)C)C1c1ccccc1[N+](=O)[O-] (stereo not drawn) [Nisoldipine],percent growth inhibition of drug alone,[1]; 7 µM,11.4 ± 5.6%
same,percent growth inhibition of drug alone,[1]; 20 µM,-17.8 ± 33%
same,percent growth inhibition,"[2]; antibiotic (0.125x MIC): tigecycline, 7 µM",-1.96 ± 4.6%
same,percent growth inhibition,"[2]; antibiotic (0.125x MIC): tigecycline, 20 µM",-2.51 ± 0.4%
"CCN(CC)CCOc1ccc(C(=C(Cl)c2ccccc2)c2ccccc2)cc1 [Clomiphene citrate (Z,E)]",percent growth inhibition of drug alone,[3]; 7 µM,-2.96 ± 5.1%
same,percent growth inhibition of drug alone,[3]; 20 µM,3.72 ± 7.9%
Cc1ccc(C(=O)c2cc(O)c(O)c([N+](=O)[O-])c2)cc1 [Tolcapone],percent growth inhibition of drug alone,[1]; 7 µM,1.72 ± 1.5%
same,percent growth inhibition of drug alone,[1]; 20 µM,-14.1 ± 18%
same,percent growth inhibition,[2]; [7],3.36 ± 1.3%
same,percent growth inhibition,[2]; [8],4.51 ± 4.5%
COc1c(N2C[C@@H]3CCCN[C@@H]3C2)c(F)cc2c(=O)c(C(=O)O)cn(C3CC3)c12 [Moxifloxacin],percent growth inhibition of drug alone,[1]; 7 µM,2.29 ± 1.1%
same,percent growth inhibition of drug alone,[1]; 20 µM,14.8 ± 3.1%
same,percent growth inhibition,[2]; [9],16.7 ± 3.8%
same,percent growth inhibition,[2]; [10],76.1 ± 5.8%
Cc1cc(C(C)(C)CC(C)(C)C)ccc1OCCOCC[N+](C)(C)Cc1ccccc1 [Methyl benzethonium chloride],percent growth inhibition of drug alone,[1]; 7 µM,-11.7 ± 16%
same,percent growth inhibition of drug alone,[1]; 20 µM,37 ± 9.6%
same,percent growth inhibition,[2]; [7],0.936 ± 9.6%
same,percent growth inhibition,[2]; [8],24.6 ± 28%
same,percent growth inhibition,[2]; [5],-1.53 ± 2.1%
same,percent growth inhibition,[2]; [6],71.4 ± 41%
COC(=O)[C@H]1[C@H]2C[C@@H]3c4[nH]c5cc(OC)ccc5c4CCN3C[C@H]2C[C@@H](OC(=O)c2cc(OC)c(OC)c(OC)c2)[C@@H]1OC [Reserpine],percent growth inhibition of drug alone,[3]; 7 µM,4.46 ± 1.7%
same,percent growth inhibition of drug alone,[3]; 20 µM,1.66 ± 6%
CCCC(C(=O)OCCN(CC)CC)(c1ccccc1)c1ccccc1 [Proadifen hydrochloride],percent growth inhibition of drug alone,[3]; 7 µM,-0.305 ± 6%
same,percent growth inhibition of drug alone,[3]; 20 µM,1.77 ± 4.8%
CCC(Cc1c(I)cc(I)c(N)c1I)C(=O)O (stereo not drawn) [Iopanoic acid],percent growth inhibition of drug alone,[1]; 7 µM,-7.62 ± 12%
same,percent growth inhibition of drug alone,[1]; 20 µM,-11.9 ± 4.7%
same,percent growth inhibition,[2]; [5],8.2 ± 13%
same,percent growth inhibition,[2]; [6],-0.229 ± 4.7%
Cc1cc(N)c2ccccc2[n+]1CCCCCCCCCC[n+]1c(C)cc(N)c2ccccc21 [Dequalinium dichloride],percent growth inhibition of drug alone,[1]; 7 µM,1.17 ± 3.6%
same,percent growth inhibition of drug alone,[1]; 20 µM,8.34 ± 2.6%
same,percent growth inhibition,[2]; [9],28.4 ± 0.56%
same,percent growth inhibition,[2]; [10],64.5 ± 6.8%
same,percent growth inhibition,[4]; 7 µM,19.8 ± 7.6%
same,percent growth inhibition,[4]; 20 µM,67.8 ± 46%
CN(C)[C@@H]1C(O)=C(C(N)=O)C(=O)[C@@]2(O)C(O)=C3C(=O)c4c(O)ccc(Cl)c4[C@@H](O)[C@H]3C[C@@H]12 [Demeclocycline hydrochloride],percent growth inhibition of drug alone,[1]; 7 µM,36.4 ± 11%
same,percent growth inhibition of drug alone,[1]; 20 µM,99.4 ± 0.2%
same,percent growth inhibition,[2]; [5],71.2 ± 20%
same,percent growth inhibition,[2]; [6],99.76 ± 0.13%
CC(C)(C)C(=O)OCOC(=O)[C@@H]1N2C(=O)[C@@H](/N=C/N3CCCCCC3)[C@H]2SC1(C)C [Pivmecillinam hydrochloride],percent growth inhibition of drug alone,[3]; 7 µM,38.8 ± 39%
same,percent growth inhibition of drug alone,[3]; 20 µM,46.4 ± 52%

# 3 entries from above, set out differently.
structure (smiles)	measurement	setting	value
CN(C)[C@@H]1C(O)=C(C(N)=O)C(=O)[C@@]2(O)C(O)=C3C(=O)c4c(O)ccc(Cl)c4[C@@H](O)[C@H]3C[C@@H]12 [Demeclocycline hydrochloride]	percent growth inhibition	[2]; [5]	71.2 ± 20%
same	percent growth inhibition	[2]; [6]	99.76 ± 0.13%
CC(C)(C)C(=O)OCOC(=O)[C@@H]1N2C(=O)[C@@H](/N=C/N3CCCCCC3)[C@H]2SC1(C)C [Pivmecillinam hydrochloride]	percent growth inhibition of drug alone	[3]; 7 µM	38.8 ± 39%

# — the supplement of paper PMC6658780
